Four compounds from the odorant receptor screen of Mainland et al. (2015) can be followed below.

Some test systems named below: OR6C3 clone 1424; OR6C4 I37V clone 1412; OR6C6 clone 1426; OR6C65 clone 1459; OR6C68 A45T clone 1451; OR6C70 clone 1427; OR6C74 clone 1441; OR6C75 clone 1519; OR6C76 clone 1414; OR6F1 clone 1039.
Holding throughout (assay): odorant receptor activation (CRE luciferase / Renilla) (fold of no-odor wells); higher = more activation
Common to all, as to settings: 100 µM

Values joined by “and” are separate entries in the source; they are usually repeats but may differ in a detail not shown here. Identical values can stand only once. Some of the results follow. Each value is one well over the wells without odorant, computed here; the data are noisy.

Turning to `CS` [methanethiol], the odorant receptor activation worked out at 0.964 in the assay with OR6C3 clone 1424; 0.988 with OR6C4 I37V clone 1412; 1.16 in the assay with OR6C6 clone 1426; 1.13 in the assay with OR6C65 clone 1459; 0.82 in the assay on OR6C68 A45T clone 1451; 1.02 in the assay with OR6C70 clone 1427. Besides, the odorant receptor activation is 1 in the assay on OR6C74 clone 1441, 0.82 in the assay on OR6C75 clone 1519, 0.688 with OR6C76 clone 1414 and 0.784 with OR6F1 clone 1039.

Take `CCC(C)=O` [2-butanone]: the odorant receptor activation with OR6C3 clone 1424 turned out to be 0.662; with OR6C4 I37V clone 1412 it was 1.04; in the assay with OR6C6 clone 1426, 1.52; in the assay on OR6C65 clone 1459, 0.997; with OR6C68 A45T clone 1451 it was 0.608; in the assay with OR6C70 clone 1427 it was 1.09. Moreover, the odorant receptor activation in the assay on OR6C74 clone 1441 was 1.05; in the assay on OR6C75 clone 1519 it was 1.19; in the assay with OR6C76 clone 1414 it was 0.365; in the assay on OR6F1 clone 1039 it was 3.21.

For `CCCCOC(C)=O` [butyl acetate], the odorant receptor activation with OR6C3 clone 1424 was 0.178; with OR6C4 I37V clone 1412, 0.244; in the assay on OR6C6 clone 1426 it was 0.185; in the assay on OR6C65 clone 1459, 0.904; in the assay on OR6C68 A45T clone 1451 it was 1.06; in the assay on OR6C70 clone 1427, 0.244. For the same compound, the odorant receptor activation stood at 0.134 in the assay with OR6C74 clone 1441, 1.1 with OR6C75 clone 1519, 0.148 in the assay on OR6C76 clone 1414 and 0.962 in the assay on OR6F1 clone 1039.

On to `CCOc1cc(C=O)ccc1O` [ethyl vanillin], for which the odorant receptor activation in the assay with OR6C3 clone 1424 is 1.11 and 1.2; in the assay on OR6C4 I37V clone 1412, 0.968 and 1.17; with OR6C6 clone 1426 it was 1.05 and 1.38; in the assay with OR6C65 clone 1459, 1.12 and 3.12 and 1.09; in the assay on OR6C68 A45T clone 1451, 0.851; with OR6C70 clone 1427 it was 1.27 and 1.07. Further, the odorant receptor activation was 1.5 and 1.42 in the assay on OR6C74 clone 1441; 1.15 and 2.08 and 1.37 with OR6C75 clone 1519; 1.06 in the assay with OR6C76 clone 1414; 1.09 and 1.14 in the assay on OR6F1 clone 1039.
